# Reference: PubChem BioAssay AID504467 (National Center for Advancing Translational Sciences (NCATS), 2011)
# The whole screen tested about 330,000 compounds, of which about 7,700 (2.3%) were called active. Inconclusive means that the source gave no clear call. Such entries were picked first, then a sample of the others. Calls come from the whole dose curve; as a rule, active = well fitted inhibition curve with a large enough effect; inconclusive = small, poorly fitted or top-dose-only effect, or effect the other way; inactive = flat fitted curve, though single readings scatter. Where the call is inconclusive, the potency comes from a doubtful curve fit.
# Experiment: qHTS screen for small molecules that inhibit ELG1-dependent DNA repair in human embryonic kidney (HEK293T) cells expressing luciferase-tagged ELG1; note: nearly all actives have a fitted effect of over 55% in size
# Details: HEK293T ELG1-luciferase reporter, luminescence, 16 h, DNA damage induced by 5-fluorouridine; series mostly up to 46.1 µM
# Summary of the method: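 Cells (2,000 per well) received 5-fluorouridine plus test compound or DMSO and were incubated 16 hr at 37 °C, 5% CO2. Luciferase activity was read by luminescence 30 min after ONE-Glo addition; signal suppression marked inhibition of damage-induced ELG1 function.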
# Potency is the fitted concentration of half-maximal effect.
row,Structure (SMILES),Potency
1,Cc1ccc(NC(=O)CC2CCCC2)c(Br)c1,"inconclusive: 23.1 µM [activator, partial curve]"
2,Cc1ccc(NC(=O)CN(c2cc(C)cc(C)c2)S(=O)(=O)c2c(C)noc2C)nc1,"inconclusive: 29.1 µM [inhibitor, single point]"
3,NC(=O)c1ccccc1NC(=O)Nc1ccccc1Cl,inactive
4,Cc1nc(-c2ccc3c(c2)OCO3)cs1,"inconclusive: 18.4 µM [activator, single point]"
5,CCN(CCn1cccn1)C(=O)c1cc(COc2cc(C)ccc2C)on1,"inconclusive: 11.6 µM [activator, partial curve]"
6,CC(Oc1cccc(Cl)c1)C(=O)NCc1ccc(S(N)(=O)=O)cc1 (configuration not stated),inactive
7,O=C(N=Nc1c(O)[nH]c2ccccc12)c1ccc2c(c1)OCO2,"inconclusive: 2.31 µM [activator, full curve]"
8,COc1ccc2o/c(=N\O)c(C(=O)Nc3ccc(C)cc3)cc2c1,inactive
9,CC(=O)Nc1ccc2c(c1)n(C)c(=O)n2C,"inconclusive: 23.1 µM [activator, single point]"
10,O=S(=O)(Nc1ccccc1)c1ccc(Oc2ncc(C(F)(F)F)cc2Cl)cc1,inactive
11,Cc1ccc(S(=O)(=O)N2CCN(C(=O)CSC3CCCC3)CC2)c(C)c1,active: 20.6 µM
12,COc1ccc(S(=O)(=O)Nc2cccc(-c3ccc(N4CCCCCC4)nn3)c2)c(OC)c1,"inconclusive: 5.8 µM [activator, full curve]"
13,Cc1cnc(NC(=O)CSc2nnc(COc3ccccc3)o2)s1,inactive
14,COc1ccc(CC(=O)NNc2ncnc3c2cnn3-c2ccc(C)cc2)cc1,inactive
15,O=C(COC(=O)c1cc([N+](=O)[O-])ccc1NCc1ccccc1)NCc1ccccc1Cl,"inconclusive: 8.2 µM [inhibitor, partial curve]"
16,O=C(c1cc(-c2cccnc2)nc2ccc(Br)cc12)N1CCN(c2ncccn2)CC1,"inconclusive: 18.4 µM [inhibitor, partial curve]"
17,CC(=O)NC(CC(=O)Nc1ccc(S(=O)(=O)Nc2nccs2)cc1)c1ccccc1 (configuration not stated),active: 0.517 µM
18,CC(=O)N1CCN(C(=O)CNc2cc(C(F)(F)F)ccc2OCC(F)(F)F)CC1,inactive
19,COCCN(Cc1ccco1)C(=O)Cn1ncc2c(=O)oc3ccccc3c21,"inconclusive: 25.9 µM [activator, partial curve, poor fit]"
20,O=C(CN1CCN(c2ccc(F)cc2)CC1)c1cccs1,inactive
21,O=C(CN1CCN(Cc2ccc(F)cc2)C1=O)NC1CCCC1,inactive
22,COCC(=O)Nc1nnc(CCc2ccccc2)s1,"inconclusive: 29.1 µM [activator, single point]"
23,COc1ccc(C(=O)CSc2ccc(-c3ccccc3)nn2)cc1,inactive
24,COc1ccccc1NC(=O)Nc1ccccc1C(N)=O,"inconclusive: 2.59 µM [activator, full curve, poor fit]"

# Quoted at random: two compounds from above, in no set order.
row,Structure (SMILES),Potency
9,CC(=O)Nc1ccc2c(c1)n(C)c(=O)n2C,"inconclusive: 23.1 µM [activator, single point]"
10,O=S(=O)(Nc1ccccc1)c1ccc(Oc2ncc(C(F)(F)F)cc2Cl)cc1,inactive

# Going on with the list.

row,Structure (SMILES),Potency
1,CCOC(=O)Cn1nnnc1C(CC)N(Cc1cccs1)Cc1cc2ccc(OC)cc2[nH]c1=O (configuration not stated),"inconclusive: 29.1 µM [inhibitor, single point]"
2,Cc1cc(C)c2nc(NC(=O)c3ccc([N+](=O)[O-])o3)sc2c1,"inconclusive: 35.5 µM [inhibitor, single point]"
3,COc1ccccc1N1CCN(C(=O)CN(C)S(=O)(=O)c2cc(C)ccc2OC)CC1,inactive
4,Cc1cc(NC(=O)Cc2ccccc2)c2ccccc2n1,"inconclusive: 1.83 µM [inhibitor, full curve]"
5,Cc1ccc(CNC(=O)CN(c2ccc(C(C)C)cc2)S(=O)(=O)c2c(C)noc2C)cc1,"inconclusive: 29.1 µM [activator, single point]"
6,OCCNc1cnc2ccccc2n1,"inconclusive: 29.1 µM [activator, single point]"
7,CCOCCCNC(=S)NCCc1ccccc1,"inconclusive: 16.4 µM [activator, partial curve]"
8,Cc1noc(C)c1C(=O)OCC(=O)N(C)C1(C#N)CCCCC1,"inconclusive: 23.1 µM [activator, single point]"
9,CCOC(=O)Cc1csc(NC(=S)NC(=O)c2ccc(Cl)cc2)n1,"inconclusive: 20.6 µM [activator, partial curve, poor fit]"
10,O=C1NC2(CCCCC2)Cc2ccccc21,"inconclusive: 32.6 µM [activator, partial curve, poor fit]"
11,COc1cccc(/C=C2\SC(=S)N(CCCC(=O)N3CCCCC3)C2=O)c1,inactive
12,COc1cccc(C(=O)c2cc3ccc(O)cc3oc2=O)c1,"inconclusive: 20.6 µM [activator, partial curve]"
13,CCOC(=O)C1=C(CC)Nc2ccccc2N=C1NC(=O)c1cc(C)on1,inactive
14,CC1(C)Cc2nc3oc4c(NCCCN5CCOCC5)ncnc4c3cc2CO1,"inconclusive: 2.91 µM [activator, full curve]"
15,COC(=O)/C=C(\C)N=Nc1c(O)[nH]c2ccccc12,"inconclusive: 4.11 µM [activator, single point]"
16,Cc1ccccc1OCC(=O)O/N=C(\N)Cc1ccc(Cl)cc1,"inconclusive: 25.9 µM [inhibitor, single point]"
17,CCn1c(-c2cc(-c3ccccc3OC)nc3ccccc23)n[nH]c1=S,active: 16.4 µM
18,CCCCC1=CC2=CC(=O)C(C)(OC(=O)CC)C(=O)C2=CN1CC(C)C (configuration not stated),inactive
19,COc1ccccc1NS(=O)(=O)c1cccc(NS(=O)(=O)c2cc(C(=O)O)ccc2OC)c1,inactive
20,CCOC(=O)CCS(=O)(=O)c1nc(-c2ccccc2)cc(C(F)(F)F)n1,"inconclusive: 29.1 µM [inhibitor, single point]"
21,COc1ccc(N(C)S(=O)(=O)c2cccc(C(=O)NCc3ccc(C)cc3)c2)cc1,inactive
22,Cc1cc(C)c2oc(-c3ccc(C)c(NC(=S)NC(=O)c4cccs4)c3)nc2c1,inactive
23,O=C(Nc1ccccc1C(=O)OCC(=O)c1c[nH]c2ccccc12)c1ccco1,"inconclusive: 23.1 µM [inhibitor, single point]"
